Experimental findings from paper PMC8260596 are described below.

Chains of the proteins cited; added tags and fusions are not shown.
UniProt P46821: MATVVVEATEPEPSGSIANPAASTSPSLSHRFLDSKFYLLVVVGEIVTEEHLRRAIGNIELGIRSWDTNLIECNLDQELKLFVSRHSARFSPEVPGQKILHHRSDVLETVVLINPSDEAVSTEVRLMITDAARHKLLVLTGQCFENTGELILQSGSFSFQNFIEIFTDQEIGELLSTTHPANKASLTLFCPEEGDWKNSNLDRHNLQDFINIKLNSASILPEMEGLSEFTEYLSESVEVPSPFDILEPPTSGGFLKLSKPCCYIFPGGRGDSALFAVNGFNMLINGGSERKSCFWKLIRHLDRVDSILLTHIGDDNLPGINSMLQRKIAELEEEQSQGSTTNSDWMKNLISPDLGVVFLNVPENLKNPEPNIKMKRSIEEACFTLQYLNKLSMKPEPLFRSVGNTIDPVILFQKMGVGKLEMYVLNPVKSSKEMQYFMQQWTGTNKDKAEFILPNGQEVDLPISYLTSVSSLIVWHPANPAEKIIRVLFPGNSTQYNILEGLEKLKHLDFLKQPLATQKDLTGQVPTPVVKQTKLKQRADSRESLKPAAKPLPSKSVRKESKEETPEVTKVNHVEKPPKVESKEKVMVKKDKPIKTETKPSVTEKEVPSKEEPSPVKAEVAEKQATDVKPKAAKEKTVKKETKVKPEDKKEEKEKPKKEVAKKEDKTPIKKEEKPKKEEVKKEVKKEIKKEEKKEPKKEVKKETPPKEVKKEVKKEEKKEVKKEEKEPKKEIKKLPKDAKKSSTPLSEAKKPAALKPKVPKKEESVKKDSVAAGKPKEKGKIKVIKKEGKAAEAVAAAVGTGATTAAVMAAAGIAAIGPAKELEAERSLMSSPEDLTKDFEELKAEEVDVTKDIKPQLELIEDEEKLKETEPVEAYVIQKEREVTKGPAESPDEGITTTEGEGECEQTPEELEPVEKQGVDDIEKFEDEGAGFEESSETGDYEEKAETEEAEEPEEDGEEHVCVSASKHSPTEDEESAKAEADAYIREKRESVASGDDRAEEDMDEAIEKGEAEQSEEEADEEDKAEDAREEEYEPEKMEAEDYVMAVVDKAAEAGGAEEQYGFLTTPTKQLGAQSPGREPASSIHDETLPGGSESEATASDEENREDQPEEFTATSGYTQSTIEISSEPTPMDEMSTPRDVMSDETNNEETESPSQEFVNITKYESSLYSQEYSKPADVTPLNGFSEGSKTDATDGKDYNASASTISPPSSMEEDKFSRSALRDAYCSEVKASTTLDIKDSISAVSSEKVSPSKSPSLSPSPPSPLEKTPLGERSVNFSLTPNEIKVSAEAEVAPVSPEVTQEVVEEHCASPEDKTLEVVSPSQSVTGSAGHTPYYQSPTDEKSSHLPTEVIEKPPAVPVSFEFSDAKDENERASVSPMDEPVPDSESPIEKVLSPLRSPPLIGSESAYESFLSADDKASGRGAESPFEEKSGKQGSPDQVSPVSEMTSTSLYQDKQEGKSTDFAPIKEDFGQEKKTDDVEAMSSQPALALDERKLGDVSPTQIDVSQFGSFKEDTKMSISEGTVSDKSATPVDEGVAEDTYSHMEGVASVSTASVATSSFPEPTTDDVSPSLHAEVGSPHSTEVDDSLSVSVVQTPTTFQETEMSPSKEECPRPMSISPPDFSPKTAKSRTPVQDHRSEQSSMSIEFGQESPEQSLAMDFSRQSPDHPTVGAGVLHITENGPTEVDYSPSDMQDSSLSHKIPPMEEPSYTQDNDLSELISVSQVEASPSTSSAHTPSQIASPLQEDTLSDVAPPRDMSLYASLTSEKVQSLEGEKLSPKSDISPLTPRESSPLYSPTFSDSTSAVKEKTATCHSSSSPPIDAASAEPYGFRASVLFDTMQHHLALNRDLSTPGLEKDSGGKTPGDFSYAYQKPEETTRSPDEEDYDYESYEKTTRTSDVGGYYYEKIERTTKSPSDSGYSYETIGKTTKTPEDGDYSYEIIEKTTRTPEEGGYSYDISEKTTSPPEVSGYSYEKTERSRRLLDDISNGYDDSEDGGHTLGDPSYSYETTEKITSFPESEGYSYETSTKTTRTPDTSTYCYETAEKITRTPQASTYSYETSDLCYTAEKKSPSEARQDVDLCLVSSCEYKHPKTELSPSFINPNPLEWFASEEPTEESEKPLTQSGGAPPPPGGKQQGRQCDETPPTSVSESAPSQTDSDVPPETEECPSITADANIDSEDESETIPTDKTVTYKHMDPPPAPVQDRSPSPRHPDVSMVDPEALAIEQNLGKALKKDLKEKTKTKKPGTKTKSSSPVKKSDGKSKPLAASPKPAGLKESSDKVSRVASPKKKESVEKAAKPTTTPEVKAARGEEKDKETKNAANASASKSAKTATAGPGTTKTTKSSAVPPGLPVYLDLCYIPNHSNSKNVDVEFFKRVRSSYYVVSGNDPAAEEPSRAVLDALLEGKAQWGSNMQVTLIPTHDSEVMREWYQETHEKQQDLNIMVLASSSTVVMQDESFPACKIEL
UniProt P04406: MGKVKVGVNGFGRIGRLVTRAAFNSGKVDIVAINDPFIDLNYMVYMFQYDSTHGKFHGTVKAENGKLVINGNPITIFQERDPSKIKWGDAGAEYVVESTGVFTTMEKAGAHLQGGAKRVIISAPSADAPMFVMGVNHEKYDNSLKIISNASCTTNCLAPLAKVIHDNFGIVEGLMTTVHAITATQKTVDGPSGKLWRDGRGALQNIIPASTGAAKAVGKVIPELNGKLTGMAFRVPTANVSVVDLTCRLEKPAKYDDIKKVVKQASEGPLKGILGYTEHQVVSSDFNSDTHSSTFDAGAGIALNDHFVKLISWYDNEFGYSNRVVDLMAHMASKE

Experiment [1] concerns the target MAP1B (human (endogenous in brain prefrontal cortex)) (UniProt P46821). Nature of the experiment: native gel or EMSA; 2D BN/SDS-PAGE: complexes of human brain prefrontal cortex (AD and age-matched control) solubilised in dodecyl-maltoside, separated on 4-16% blue-native gel at 4 °C, resolved on 7.5-12.5% SDS-PAGE in the second dimension; spots identified by nano LC-MS/MS. (In general: A gel shift assay detects complexes by their altered migration in electrophoresis.)

Experiment [2] addresses T1, microsomal glutathione S transferase (human (endogenous in brain prefrontal cortex)) (UniProt P10620).
T1 sequence: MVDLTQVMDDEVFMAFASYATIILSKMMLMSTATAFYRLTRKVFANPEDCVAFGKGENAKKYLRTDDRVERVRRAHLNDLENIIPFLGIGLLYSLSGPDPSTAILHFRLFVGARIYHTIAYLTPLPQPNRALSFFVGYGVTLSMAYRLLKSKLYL
The experiment is described as above.

Results are given in words; binding and its absence hold for the method and conditions named. Some binding calls cover weakened binding; strength is not graded here.

In the case of “Glyceraldehyde-3-PO4 dehydrogenase (from UniProt P04406 1-335)”, in experiment [1], the binding entry is “binds”.

B1: immunoglobulin super family member 8 (protein, UniProt Q969P0 28-613)
chain: REVLVPEGPLYRVAGTAVSISCNVTGYEGPAQQNFEWFLYRPEAPDTALGIVSTKDTQFSYAVFKSRVVAGEVQVQRLQGDAVVLKIARLQAQDAGIYECHTPSTDTRYLGSYSGKVELRVLPDVLQVSAAPPGPRGRQAPTSPPRMTVHEGQELALGCLARTSTQKHTHLAVSFGRSVPEAPVGRSTLQEVVGIRSDLAVEAGAPYAERLAAGELRLGKEGTDRYRMVVGGAQAGDAGTYHCTAAEWIQDPDGSWAQIAEKRAVLAHVDVQTLSSQLAVTVGPGERRIGPGEPLELLCNVSGALPPAGRHAAYSVGWEMAPAGAPGPGRLVAQLDTEGVGSLGPGYEGRHIAMEKVASRTYRLRLEAARPGDAGTYRCLAKAYVRGSGTRLREAASARSRPLPVHVREEGVVLEAVAWLAGGTVYRGETASLLCNISVRGGPPGLRLAASWWVERPEDGELSSVPAQLVGGVGQDGVAELGVRPGGGPVSVELVGPRSHRLRLHSLGPEDEGVYHCAPSAWVQHADYSWYQAGSARSGPVTVYPYMHALDTLFVPLLVGTGVALVTGATVLGTITCCFMKRLRKR
As to B1, the binding result in experiment [2] is given as “binds”.
